No constants are given. Whether binding was seen depends on the method and setting. In cells and extracts the contact can be indirect. Some results given as binding are weak or reduced against the parent protein; the word gives no strength. Sequences can lack the tags named with a protein.
Molecular target: T1, clathrin light chain A fused with mfGFP (CLCA-mfGFP) (human) (UniProt P09496)
T1 sequence: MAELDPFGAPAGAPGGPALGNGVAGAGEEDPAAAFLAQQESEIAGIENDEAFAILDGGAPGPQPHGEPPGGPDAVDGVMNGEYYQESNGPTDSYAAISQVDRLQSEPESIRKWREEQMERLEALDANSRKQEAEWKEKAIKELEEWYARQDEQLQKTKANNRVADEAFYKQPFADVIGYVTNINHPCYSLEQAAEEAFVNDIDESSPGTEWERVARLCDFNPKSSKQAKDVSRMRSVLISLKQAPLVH
Experiment: pull-down; HiTrap streptavidin column by the SBP tag of CLCA-mfGFP; triskelions extracted from HeLa microsomes; buffer A (0.5 M NaCl, 20 mM MOPS pH 7.4, 0.3 M sucrose, 2 mM DTT); eluted with 2.5 mM d-desthiobiotin; SDS-PAGE, CBB stain

Chains of the proteins cited; added tags and fusions are not shown.
UniProt Q00610: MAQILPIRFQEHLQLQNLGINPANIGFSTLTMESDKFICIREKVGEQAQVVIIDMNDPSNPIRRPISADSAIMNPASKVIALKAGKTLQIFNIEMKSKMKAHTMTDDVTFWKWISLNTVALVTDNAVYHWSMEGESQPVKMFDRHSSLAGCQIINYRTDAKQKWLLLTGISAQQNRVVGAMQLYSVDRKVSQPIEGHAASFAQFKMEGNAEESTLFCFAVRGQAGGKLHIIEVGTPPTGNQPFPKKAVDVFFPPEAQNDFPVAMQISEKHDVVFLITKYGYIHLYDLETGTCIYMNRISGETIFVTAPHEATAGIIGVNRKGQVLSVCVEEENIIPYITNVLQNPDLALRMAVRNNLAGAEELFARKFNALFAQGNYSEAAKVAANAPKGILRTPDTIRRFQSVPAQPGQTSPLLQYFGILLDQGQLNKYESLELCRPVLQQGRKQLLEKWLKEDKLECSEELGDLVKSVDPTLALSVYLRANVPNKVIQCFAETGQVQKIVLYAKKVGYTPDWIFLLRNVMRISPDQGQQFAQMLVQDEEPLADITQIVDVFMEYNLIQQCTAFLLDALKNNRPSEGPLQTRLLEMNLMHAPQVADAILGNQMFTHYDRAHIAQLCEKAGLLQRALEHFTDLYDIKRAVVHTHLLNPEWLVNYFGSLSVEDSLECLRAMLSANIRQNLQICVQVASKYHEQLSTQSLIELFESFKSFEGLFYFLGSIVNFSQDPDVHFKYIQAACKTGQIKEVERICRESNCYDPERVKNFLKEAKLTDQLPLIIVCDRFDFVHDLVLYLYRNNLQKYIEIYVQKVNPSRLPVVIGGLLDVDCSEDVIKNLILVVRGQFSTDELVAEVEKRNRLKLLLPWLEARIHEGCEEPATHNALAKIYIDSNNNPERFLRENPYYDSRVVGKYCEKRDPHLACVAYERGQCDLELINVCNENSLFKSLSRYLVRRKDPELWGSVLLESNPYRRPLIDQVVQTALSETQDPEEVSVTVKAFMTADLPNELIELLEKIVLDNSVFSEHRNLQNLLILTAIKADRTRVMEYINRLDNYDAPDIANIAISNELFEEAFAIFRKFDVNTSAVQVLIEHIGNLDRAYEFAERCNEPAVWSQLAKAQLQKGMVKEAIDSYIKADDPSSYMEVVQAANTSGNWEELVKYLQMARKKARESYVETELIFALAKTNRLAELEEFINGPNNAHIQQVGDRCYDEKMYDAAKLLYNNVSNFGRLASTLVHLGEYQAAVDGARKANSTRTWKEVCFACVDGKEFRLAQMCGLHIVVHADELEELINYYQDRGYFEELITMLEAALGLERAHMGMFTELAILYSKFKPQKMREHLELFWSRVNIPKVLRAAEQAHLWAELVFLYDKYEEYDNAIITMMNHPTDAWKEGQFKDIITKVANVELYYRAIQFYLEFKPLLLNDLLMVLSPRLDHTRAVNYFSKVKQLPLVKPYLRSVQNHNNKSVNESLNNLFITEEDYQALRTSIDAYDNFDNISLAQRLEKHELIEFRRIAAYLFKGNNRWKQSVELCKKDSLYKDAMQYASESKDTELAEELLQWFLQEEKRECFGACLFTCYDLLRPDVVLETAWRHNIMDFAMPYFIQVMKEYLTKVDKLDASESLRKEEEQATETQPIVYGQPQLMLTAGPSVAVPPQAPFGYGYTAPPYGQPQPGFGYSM

clathrin heavy chain (CHC) (from UniProt Q00610 1-1675)
binding: binds

From article PMC2585475
